Among the data in PMC5886296 are binding values, retold here.

The chains behind the UniProt entries cited, without tags or fusion partners. Residues count along the entry.
UniProt P25705, residues 44-553: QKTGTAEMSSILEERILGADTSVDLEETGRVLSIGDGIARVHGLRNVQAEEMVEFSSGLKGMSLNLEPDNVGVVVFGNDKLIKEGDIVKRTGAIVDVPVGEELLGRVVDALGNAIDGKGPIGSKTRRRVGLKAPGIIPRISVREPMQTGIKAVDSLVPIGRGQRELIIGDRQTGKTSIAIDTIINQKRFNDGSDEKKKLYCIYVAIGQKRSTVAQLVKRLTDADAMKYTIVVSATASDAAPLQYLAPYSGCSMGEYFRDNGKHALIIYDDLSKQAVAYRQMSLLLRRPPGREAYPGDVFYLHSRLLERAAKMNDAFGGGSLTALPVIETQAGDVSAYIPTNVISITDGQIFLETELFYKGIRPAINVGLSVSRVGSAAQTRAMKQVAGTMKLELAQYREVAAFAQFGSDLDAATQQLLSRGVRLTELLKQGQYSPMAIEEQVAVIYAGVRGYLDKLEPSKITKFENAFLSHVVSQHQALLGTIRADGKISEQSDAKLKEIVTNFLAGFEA
UniProt P68104: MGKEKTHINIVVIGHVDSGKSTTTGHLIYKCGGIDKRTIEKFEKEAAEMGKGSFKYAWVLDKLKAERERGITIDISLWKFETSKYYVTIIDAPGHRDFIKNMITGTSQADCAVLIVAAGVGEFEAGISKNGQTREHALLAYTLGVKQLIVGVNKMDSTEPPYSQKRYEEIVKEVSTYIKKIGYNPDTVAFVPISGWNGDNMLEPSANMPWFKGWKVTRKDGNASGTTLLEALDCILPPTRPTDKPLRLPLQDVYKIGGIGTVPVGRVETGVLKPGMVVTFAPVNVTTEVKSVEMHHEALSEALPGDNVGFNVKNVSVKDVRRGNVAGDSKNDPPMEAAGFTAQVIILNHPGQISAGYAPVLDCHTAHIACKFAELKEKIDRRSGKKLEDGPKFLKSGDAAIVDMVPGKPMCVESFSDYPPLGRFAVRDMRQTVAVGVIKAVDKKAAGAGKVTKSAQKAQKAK
UniProt P0DMV8: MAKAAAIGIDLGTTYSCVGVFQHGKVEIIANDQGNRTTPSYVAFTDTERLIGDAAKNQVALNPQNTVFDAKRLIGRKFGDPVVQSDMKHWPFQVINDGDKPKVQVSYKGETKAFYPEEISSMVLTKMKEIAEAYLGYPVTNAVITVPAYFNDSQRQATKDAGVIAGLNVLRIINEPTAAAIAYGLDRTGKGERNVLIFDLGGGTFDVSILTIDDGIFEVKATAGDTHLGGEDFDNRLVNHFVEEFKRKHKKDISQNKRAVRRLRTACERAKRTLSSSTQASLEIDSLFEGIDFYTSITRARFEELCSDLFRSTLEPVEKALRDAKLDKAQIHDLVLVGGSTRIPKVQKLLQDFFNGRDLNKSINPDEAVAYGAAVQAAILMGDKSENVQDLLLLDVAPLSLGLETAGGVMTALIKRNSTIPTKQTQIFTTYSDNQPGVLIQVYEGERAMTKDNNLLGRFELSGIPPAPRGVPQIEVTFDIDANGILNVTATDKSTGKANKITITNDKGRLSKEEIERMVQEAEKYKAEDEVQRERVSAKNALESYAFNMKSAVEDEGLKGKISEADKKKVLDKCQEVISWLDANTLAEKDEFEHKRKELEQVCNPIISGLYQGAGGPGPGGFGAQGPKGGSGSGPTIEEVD
UniProt P11021, residues 19-654: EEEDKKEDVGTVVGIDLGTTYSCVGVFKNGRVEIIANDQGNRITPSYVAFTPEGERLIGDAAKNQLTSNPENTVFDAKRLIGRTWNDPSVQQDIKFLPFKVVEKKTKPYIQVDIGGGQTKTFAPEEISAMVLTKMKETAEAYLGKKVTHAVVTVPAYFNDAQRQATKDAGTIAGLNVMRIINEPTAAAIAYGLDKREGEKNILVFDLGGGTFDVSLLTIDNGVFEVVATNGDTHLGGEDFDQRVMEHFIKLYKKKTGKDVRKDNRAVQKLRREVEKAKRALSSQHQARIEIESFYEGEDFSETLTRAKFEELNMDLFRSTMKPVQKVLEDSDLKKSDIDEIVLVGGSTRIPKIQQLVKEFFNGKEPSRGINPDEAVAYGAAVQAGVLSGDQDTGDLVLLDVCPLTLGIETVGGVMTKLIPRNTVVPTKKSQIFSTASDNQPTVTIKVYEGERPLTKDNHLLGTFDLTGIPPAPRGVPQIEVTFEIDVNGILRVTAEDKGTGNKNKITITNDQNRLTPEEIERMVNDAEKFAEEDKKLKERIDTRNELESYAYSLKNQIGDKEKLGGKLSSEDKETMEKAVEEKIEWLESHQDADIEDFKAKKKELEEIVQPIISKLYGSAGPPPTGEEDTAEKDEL
UniProt P17066: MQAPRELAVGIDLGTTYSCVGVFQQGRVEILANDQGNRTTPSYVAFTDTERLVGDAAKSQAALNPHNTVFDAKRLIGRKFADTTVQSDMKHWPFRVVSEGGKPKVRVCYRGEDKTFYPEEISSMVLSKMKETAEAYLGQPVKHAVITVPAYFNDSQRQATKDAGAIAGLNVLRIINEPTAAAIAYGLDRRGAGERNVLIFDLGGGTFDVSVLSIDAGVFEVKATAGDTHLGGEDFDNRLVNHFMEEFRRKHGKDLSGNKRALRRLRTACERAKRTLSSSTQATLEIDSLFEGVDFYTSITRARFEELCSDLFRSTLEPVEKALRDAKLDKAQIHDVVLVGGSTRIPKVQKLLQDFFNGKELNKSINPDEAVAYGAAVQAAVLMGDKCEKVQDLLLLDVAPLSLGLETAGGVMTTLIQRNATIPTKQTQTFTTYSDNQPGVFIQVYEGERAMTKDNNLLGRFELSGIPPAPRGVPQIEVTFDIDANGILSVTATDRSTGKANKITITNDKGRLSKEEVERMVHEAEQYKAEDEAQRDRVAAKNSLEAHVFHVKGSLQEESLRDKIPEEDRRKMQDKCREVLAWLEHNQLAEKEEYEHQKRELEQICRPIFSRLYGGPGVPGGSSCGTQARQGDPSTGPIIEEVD
UniProt P11142: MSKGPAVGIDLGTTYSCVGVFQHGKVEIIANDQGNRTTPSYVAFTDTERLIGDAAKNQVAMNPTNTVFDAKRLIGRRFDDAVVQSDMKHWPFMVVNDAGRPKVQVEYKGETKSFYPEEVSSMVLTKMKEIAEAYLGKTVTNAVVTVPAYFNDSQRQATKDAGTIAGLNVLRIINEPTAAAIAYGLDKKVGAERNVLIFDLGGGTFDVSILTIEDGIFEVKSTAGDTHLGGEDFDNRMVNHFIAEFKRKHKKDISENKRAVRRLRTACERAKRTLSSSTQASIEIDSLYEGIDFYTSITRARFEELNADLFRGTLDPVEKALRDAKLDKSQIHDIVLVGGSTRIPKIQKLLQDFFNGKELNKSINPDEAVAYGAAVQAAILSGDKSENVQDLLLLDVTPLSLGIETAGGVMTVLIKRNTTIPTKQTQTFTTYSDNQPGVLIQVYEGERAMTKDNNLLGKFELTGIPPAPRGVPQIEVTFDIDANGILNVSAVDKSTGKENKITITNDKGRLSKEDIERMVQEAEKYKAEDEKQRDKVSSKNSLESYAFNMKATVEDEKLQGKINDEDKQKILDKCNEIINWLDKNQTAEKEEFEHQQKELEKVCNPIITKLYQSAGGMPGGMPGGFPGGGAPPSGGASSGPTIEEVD
UniProt P38646, residues 47-679: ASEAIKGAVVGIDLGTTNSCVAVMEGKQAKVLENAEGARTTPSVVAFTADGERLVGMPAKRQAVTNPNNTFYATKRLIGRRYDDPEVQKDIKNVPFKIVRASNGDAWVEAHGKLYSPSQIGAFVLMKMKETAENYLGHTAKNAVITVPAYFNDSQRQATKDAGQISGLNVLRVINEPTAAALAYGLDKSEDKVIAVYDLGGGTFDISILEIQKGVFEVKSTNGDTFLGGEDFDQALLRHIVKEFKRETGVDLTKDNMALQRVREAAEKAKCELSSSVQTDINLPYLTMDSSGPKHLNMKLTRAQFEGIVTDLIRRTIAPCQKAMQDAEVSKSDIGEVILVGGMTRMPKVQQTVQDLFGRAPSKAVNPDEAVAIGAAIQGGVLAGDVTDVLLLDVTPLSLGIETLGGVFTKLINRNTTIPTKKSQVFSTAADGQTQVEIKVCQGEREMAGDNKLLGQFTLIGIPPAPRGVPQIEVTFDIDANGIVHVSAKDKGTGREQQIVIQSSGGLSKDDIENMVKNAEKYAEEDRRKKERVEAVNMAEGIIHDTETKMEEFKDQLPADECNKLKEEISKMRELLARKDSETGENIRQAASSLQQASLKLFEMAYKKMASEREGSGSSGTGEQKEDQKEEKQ
UniProt Q9Y265: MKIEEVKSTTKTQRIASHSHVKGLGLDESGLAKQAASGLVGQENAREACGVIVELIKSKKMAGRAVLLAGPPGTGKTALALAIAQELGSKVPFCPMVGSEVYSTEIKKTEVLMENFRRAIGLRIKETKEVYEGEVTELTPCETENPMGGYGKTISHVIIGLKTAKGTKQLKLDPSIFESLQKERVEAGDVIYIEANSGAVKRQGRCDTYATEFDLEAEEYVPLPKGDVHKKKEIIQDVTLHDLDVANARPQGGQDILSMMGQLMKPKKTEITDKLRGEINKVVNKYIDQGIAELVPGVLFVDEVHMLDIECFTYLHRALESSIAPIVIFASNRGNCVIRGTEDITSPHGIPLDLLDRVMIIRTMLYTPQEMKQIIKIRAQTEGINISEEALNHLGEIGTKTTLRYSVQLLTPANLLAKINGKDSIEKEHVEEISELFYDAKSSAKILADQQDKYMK
UniProt P68363: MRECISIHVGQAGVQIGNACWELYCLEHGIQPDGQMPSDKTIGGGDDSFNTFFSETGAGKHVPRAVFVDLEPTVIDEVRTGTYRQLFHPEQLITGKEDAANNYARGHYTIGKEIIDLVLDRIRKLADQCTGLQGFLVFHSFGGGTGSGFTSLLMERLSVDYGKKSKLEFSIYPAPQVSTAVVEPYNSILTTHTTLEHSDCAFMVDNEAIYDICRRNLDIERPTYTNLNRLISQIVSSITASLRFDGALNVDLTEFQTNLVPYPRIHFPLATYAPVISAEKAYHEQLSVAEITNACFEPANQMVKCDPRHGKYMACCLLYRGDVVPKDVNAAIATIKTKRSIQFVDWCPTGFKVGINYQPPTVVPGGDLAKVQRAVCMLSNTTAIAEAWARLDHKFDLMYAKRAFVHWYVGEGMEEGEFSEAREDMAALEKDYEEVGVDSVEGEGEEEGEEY
UniProt P68371: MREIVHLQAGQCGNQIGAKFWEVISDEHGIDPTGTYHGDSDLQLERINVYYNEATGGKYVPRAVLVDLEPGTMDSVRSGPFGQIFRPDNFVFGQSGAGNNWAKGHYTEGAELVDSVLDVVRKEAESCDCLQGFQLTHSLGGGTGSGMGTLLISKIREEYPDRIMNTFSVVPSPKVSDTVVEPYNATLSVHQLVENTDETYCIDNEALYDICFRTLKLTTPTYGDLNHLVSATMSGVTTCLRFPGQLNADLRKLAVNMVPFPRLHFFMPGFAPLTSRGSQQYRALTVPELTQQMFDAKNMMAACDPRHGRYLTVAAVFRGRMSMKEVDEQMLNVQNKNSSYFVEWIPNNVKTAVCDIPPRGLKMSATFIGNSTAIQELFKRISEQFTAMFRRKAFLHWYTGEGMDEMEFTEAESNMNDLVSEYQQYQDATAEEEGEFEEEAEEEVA
UniProt P07437: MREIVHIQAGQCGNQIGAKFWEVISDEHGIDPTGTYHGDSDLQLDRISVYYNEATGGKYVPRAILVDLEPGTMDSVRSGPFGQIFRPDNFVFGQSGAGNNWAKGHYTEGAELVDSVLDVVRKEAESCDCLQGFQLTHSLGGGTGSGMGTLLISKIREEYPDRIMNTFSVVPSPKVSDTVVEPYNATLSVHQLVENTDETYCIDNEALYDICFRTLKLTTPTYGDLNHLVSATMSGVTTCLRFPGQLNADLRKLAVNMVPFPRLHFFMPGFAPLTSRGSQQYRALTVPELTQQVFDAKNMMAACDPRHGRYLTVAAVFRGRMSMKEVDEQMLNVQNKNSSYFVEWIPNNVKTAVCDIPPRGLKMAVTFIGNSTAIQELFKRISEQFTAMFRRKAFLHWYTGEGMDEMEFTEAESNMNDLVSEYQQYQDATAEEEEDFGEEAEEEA

Holding throughout (experiment): affinity purification with mass spectrometry; SF-TAP of N-terminally tagged DNAAF1 from transfected HEK293 lysate: Strep-Tactin beads, desthiobiotin elution, then anti-FLAG M2 beads, FLAG peptide elution; mass spectrometry; three biological replicates
Assay [1] addresses T1, SF-TAP-DNAAF1 mutant (p.Phe191) (human) (UniProt Q8NEP3).
T1 sequence: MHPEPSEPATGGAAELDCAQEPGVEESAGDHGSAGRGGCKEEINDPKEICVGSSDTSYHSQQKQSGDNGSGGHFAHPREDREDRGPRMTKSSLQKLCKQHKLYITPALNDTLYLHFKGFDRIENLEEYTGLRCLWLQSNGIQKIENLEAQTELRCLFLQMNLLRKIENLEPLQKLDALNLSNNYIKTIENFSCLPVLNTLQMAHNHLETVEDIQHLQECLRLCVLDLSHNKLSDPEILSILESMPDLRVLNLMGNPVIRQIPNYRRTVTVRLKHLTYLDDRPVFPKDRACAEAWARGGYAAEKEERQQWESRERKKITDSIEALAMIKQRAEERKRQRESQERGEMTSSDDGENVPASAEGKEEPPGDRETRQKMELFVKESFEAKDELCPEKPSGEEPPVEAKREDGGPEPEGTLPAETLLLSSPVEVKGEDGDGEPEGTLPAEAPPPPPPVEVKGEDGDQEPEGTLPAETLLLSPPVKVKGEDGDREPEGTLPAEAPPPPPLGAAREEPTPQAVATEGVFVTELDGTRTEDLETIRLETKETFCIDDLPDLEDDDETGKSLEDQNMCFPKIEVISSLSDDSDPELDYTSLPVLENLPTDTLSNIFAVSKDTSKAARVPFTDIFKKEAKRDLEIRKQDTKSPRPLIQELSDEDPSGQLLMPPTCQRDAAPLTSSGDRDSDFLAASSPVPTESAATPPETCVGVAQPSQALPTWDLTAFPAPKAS

Assay [2] addresses T2, SF-TAP-DNAAF1 wild-type (p.Leu191) (human) (UniProt Q8NEP3).
T2 sequence: T1 sequence with F191L

In assay [3] the target is T1, SF-TAP-DNAAF1 mutant (p.Phe191) (human). The source holds these as a separate data set.
Assay [4] deals with T2, SF-TAP-DNAAF1 wild-type (p.Leu191) (human). This is another data set of the same source.

Substitutions are numbered along the chain they refer to. Read-outs that look alike come from different tables or passages of the source. These are yes or no findings as the source states them, for the method shown. Binding seen in cells or lysates may run through a third protein. A yes stands for co-enrichment or nearness to the bait. Other partners may have been found. For some assays here: A no says only that the protein was not detected with the bait.

Take ATP5A1 (from UniProt P25705 44-553): the binding result in assay [1] and in assay [2] was “binds” in each case.
On to EEF1A1 (from UniProt P68104 1-462), for which the binding entry in assay [1] and in assay [2] was “binds” in each case.
As to HSP90AA1 (from UniProt P07900 1-732), the binding entry in assay [1] is reported as “binds”; in assay [2], “no binding”.
With HSPA1A (from UniProt P0DMV8 1-641), the binding entry in assay [1] and in assay [2] was “binds” throughout.
Regarding HSPA5 (from UniProt P11021 19-654), the binding result in assay [1] and in assay [2] was “binds” in each case.
As for HSPA6 (from UniProt P17066 1-643), the binding result in assay [1] is “binds”; in assay [2], “no binding”.
Take HSPA8 (from UniProt P11142 1-646): the binding entry in assay [1] and in assay [2] was “binds” each time.
In the case of HSPA9 (from UniProt P38646 47-679), the binding result in assay [1] and in assay [2] was “binds” in each case.
In the case of RUVBL1 (from UniProt Q9Y265 1-456), the binding result in assay [1] and in assay [2] was “binds” in each case.
As to TUBA1B (from UniProt P68363 1-451), the binding result in assay [1] and in assay [2] was “binds” each time.
Consider TUBB4B (from UniProt P68371 1-445), for which the binding result in assay [1] and in assay [2] was “binds” each time.
Consider TUBB (from UniProt P07437 1-444), for which the binding result in assay [1] and in assay [2] was “binds” each time.

B1: SUGT1 (protein, UniProt Q9Y2Z0 1-365)
chain: MAAAAAGTATSQRFFQSFSDALIDEDPQAALEELTKALEQKPDDAQYYCQRAYCHILLGNYCVAVADAKKSLELNPNNSTAMLRKGICEYHEKNYAAALETFTEGQKLDIETGFHRVGQAGLQLLTSSDPPALDSQSAGITGADANFSVWIKRCQEAQNGSESEVWTHQSKIKYDWYQTESQVVITLMIKNVQKNDVNVEFSEKELSALVKLPSGEDYNLKLELLHPIIPEQSTFKVLSTKIEIKLKKPEAVRWEKLEGQGDVPTPKQFVADVKNLYPSSSPYTRNWDKLVGEIKEEEKNEKLEGDAALNRLFQQIYSDGSDEVKRAMNKSFMESGGTVLSTNWSDVGKRKVEINPPDDMEWKKY
On to B1, for which the binding entry is reported as “binds” in assay [3] and “no binding” in assay [4].
